# Data taken from publication PMC4041461.
# For at least one entry, the source does not settle the construct or the ends of the probe. Results from cells or extracts need not show a direct contact. For some of these results: No signal at the amounts used counts as a negative. For some of these results: Protein sequences can lack the tags named with them.
# Legend:
# Test in all cases: pull-down
# Conditions in all cases: 3' biotin; pull-down: RNA on streptavidin beads blocked in 10 mM Tris-HCl pH 7.5, 100 mM KCl, 0.1 mM EDTA, 1 mM DTT, 0.01% Triton X-100, BSA, tRNA; extract 1 h at 30 °C; protein in an extract; label: biotin
# RPL19 (Homo sapiens) = RPL19 (Homo sapiens) (UniProt P84098)
# RPL27a (Homo sapiens) = RPL27a (Homo sapiens) (UniProt P46776)
# RBM14 (Homo sapiens) = target: T1, RBM14 (Homo sapiens) (UniProt Q96PK6)
# T1 sequence (looked up, limits assumed): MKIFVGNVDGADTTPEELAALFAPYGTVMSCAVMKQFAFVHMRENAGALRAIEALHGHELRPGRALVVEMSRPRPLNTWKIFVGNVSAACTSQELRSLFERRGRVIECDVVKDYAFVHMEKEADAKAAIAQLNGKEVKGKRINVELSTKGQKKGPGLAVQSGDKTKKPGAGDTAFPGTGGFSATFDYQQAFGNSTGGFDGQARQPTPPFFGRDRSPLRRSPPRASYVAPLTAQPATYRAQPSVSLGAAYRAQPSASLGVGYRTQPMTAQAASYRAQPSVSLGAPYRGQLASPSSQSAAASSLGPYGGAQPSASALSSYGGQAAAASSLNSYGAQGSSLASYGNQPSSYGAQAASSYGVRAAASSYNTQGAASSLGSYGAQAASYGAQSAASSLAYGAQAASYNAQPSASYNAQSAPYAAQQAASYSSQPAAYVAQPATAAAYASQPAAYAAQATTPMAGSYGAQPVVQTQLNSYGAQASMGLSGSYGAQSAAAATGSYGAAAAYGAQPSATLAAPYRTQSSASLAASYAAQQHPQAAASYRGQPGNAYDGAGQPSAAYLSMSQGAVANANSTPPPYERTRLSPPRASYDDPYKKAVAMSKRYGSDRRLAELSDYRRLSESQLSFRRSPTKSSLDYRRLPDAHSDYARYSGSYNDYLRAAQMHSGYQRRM
# [1] = target: Y-box-binding protein 3 (Homo sapiens) (UniProt P16989)
# RPS2 (Homo sapiens) = RPS2 (Homo sapiens) (UniProt P15880)
# RPL26 (Homo sapiens) = RPL26 (Homo sapiens) (UniProt P61254)
# hnRNPH (Homo sapiens) = target: T2, hnRNPH (Homo sapiens) (UniProt P31943)
# T2 sequence (looked up, limits assumed): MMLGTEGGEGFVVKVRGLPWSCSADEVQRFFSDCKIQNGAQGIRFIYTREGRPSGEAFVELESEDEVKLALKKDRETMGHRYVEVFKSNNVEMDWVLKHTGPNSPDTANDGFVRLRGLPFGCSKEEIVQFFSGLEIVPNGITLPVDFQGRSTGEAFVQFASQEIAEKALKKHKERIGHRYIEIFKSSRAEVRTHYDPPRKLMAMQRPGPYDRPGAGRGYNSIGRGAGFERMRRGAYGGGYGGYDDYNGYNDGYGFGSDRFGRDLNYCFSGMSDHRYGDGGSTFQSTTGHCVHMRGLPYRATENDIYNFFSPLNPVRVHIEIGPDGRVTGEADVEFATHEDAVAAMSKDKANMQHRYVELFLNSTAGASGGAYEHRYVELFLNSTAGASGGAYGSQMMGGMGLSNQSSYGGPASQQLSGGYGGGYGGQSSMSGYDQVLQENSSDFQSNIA
# hnRNPF (Homo sapiens) = target: T3, hnRNPF (Homo sapiens) (UniProt P52597)
# T3 sequence (looked up, limits assumed): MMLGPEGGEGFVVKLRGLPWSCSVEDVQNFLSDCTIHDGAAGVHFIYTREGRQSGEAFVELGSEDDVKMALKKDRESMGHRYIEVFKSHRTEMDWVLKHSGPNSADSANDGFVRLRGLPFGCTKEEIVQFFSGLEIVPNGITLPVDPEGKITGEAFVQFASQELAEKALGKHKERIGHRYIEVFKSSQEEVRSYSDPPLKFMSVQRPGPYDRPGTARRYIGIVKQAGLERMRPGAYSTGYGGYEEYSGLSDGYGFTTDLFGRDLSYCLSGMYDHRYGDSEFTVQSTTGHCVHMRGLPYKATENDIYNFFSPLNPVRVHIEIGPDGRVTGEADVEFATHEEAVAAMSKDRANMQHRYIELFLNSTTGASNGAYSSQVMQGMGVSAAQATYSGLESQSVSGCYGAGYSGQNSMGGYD
# hnRNPA3 (Homo sapiens) = hnRNPA3 (Homo sapiens) (UniProt P51991)
# RPS6 (Homo sapiens) = RPS6 (Homo sapiens) (UniProt P62753)
# RPL14 (Homo sapiens) = RPL14 (Homo sapiens) (UniProt P50914)
# [2] = target: SRSF1 (native) (Homo sapiens) (UniProt Q07955)
# [3] = target: U2AF65 (native) (Homo sapiens) (UniProt P26368)
# RPL7 (Homo sapiens) = RPL7 (Homo sapiens) (UniProt P18124)
# G3BP2 (Homo sapiens) = G3BP2 (Homo sapiens) (UniProt Q9UN86)
# [4] = target: Nucleolin (native) (Homo sapiens) (UniProt P19338)
# Actin (Homo sapiens) = test system: Actin (Homo sapiens)
# YB-1 (Homo sapiens) = YB-1 (Homo sapiens) (UniProt P67809)
# RPS9 (Homo sapiens) = RPS9 (Homo sapiens) (UniProt P46781)
# [5] = target: EFHD2 (native) (Homo sapiens) (UniProt Q96C19)
# RPL12 (Homo sapiens) = RPL12 (Homo sapiens) (UniProt P30050)
# RPL6 (Homo sapiens) = RPL6 (Homo sapiens) (UniProt Q02878)
# [6] = target: Tropomyosin alpha 4 (Homo sapiens) (UniProt P67936)
# RPL10 (Homo sapiens) = RPL10 (Homo sapiens) (UniProt P27635)
# SRSF9 (Homo sapiens) = SRSF9 (Homo sapiens) (UniProt Q13242)
sequence,measurement,setting,value
AGCCGGGGGCUGGGCGGGGACCGGGCUUGU [ARPC2 GQ],binding result,RPL19 (Homo sapiens),binds
same,binding result,RPL27a (Homo sapiens),binds
same,binding result,RBM14 (Homo sapiens),binds
same,binding result,[1],binds
same,binding result,RPS2 (Homo sapiens),binds
same,binding result,RPL26 (Homo sapiens),binds
same,binding result,hnRNPH (Homo sapiens),binds
same,binding result,hnRNPF (Homo sapiens),binds
same,binding result,hnRNPA3 (Homo sapiens),no binding
same,binding result,RPS6 (Homo sapiens),binds
same,binding result,RPL14 (Homo sapiens),binds
same,binding result,[2],binds
same,binding result,[3],binds
same,binding result,RPL7 (Homo sapiens),binds
same,binding result,G3BP2 (Homo sapiens),binds
same,binding result,[4],binds
same,binding result,Actin (Homo sapiens),binds
same,binding result,YB-1 (Homo sapiens),binds
same,binding result,RPS9 (Homo sapiens),binds
same,binding result,[5],binds
same,binding result,RPL12 (Homo sapiens),binds
same,binding result,RPL6 (Homo sapiens),binds
same,binding result,[6],binds
same,binding result,RPL10 (Homo sapiens),binds
same,binding result,SRSF9 (Homo sapiens),binds
